From paper PMC6367570

T1: Sec5-3mCherry (S. pombe) (UniProt O94598)
T1 sequence: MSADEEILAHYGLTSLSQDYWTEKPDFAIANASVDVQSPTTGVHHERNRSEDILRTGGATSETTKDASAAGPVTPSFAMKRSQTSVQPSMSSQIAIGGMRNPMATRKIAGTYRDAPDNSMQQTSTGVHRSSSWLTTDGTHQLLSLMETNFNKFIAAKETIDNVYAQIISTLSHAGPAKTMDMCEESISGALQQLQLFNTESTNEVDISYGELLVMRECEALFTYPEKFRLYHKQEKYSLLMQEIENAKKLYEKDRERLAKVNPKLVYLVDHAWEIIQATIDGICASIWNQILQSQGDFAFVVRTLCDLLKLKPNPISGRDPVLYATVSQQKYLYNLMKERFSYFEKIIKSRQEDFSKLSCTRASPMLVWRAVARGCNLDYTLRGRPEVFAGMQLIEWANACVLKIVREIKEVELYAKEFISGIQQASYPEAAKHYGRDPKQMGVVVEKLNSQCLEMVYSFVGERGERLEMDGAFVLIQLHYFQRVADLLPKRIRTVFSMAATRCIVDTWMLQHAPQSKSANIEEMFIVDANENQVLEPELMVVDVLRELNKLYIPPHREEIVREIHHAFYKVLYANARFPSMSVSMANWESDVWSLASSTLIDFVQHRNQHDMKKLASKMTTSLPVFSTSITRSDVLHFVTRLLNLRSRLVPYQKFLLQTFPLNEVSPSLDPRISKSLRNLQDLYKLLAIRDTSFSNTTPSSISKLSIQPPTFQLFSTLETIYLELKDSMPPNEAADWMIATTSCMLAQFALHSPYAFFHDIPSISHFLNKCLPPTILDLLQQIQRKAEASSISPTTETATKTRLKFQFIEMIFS


Molecular target: T1, Sec5-3mCherry (S. pombe)
Test: affinity purification with mass spectrometry; Sec5-3mCherry immunoprecipitated with anti-tdimer2 antibody crosslinked to Protein G Dynabeads, 1 hr, from a 1:1 mix of SILAC extracts of cells treated with methanol (light) or 30 uM 3-BrB-PP1 (heavy, Orb6 inhibition) for 45 min; lysis buffer 50 mM Tris-HCl pH 7.5, 150 mM NaCl, 0.2% Triton X-100; five washes; SDS-PAGE, in-gel digestion, LC-MS/MS

Molecule | binding
Sec3 | binds
Sec8 (protein, UniProt O74562 1-1073) MDTRGYSETKKGRYPVGKKSLESPNGYSNYGTSMDNELSSEYASRGMHIGDLENLVNEIEDEWKDLGREDYQPISTALELLDDSSFGRDYKSFLNVYDRISAALQTIAHTHKDDFTRGISAYGEIMEGIQKCNSRIIALKQSLEASQECIGNTNSKELQQTLARSSQYKKVISVLKELNEANQLFDNFHTLVDSKQYYHASDLIRRVWDELSRSDFDGILVVEQFKSRMTGLLSHLEDILSEELVSITFLKDAVAYPIVSYCSPNPLRETSNPYFLRDFLKNNANTSTLGQSEQLRYLEEALSLKLSDCLKMDYGRDSLRDIRIVLESLNLLGKLPNAISSLKSRTSAEMFTTVDSTSRAIVNKYSLGNNVSTVNPFSKSLYDIGLHAETDREHTMISEFLTNLFTKLRCVLMHYRGISEFMTKLETKTPKHASSSHKSSIMSVNSDPTSPKVSKFDTSDSTFPFDTLLQAFESEIRLMLKDYLISKEEYIENSGNFVVGTEMSIYNLPGENEEDKLFDVTNEIAVENKSNAFYARINELVNEKAPELILNKSNASVSTIELFSGSSKEIVRLAGHVVFVGPSVFHASSVLPQTVFFLEDSVSILKNPNIPPQFAVNFMKEFLRGSYIPQLYKFMSSHFDTIMKDVGAFQLHRDWKIYSKIPIFKCHVAIVQYFHDLQDYLPIVALNLVEFYELLHTLLVRFRNHCSDYLSDLCRTAVLKEYKHVNEDTEDVDDTVRVKLLHDDVTYPQFIKFLKQKNPSLEGLNELCRMENKRLLQYEDRAITSEVKLPVSVLSKDSDLVNSVSYLHNSMEWFLQRCFSRFMNGSRRMNVLQQNQANFGGDFLPIDNLLGNNSDLMKGAYKEVFDSLQRLQFDALLLIRMEVRLQYIHSINQSVNLPDYVVEYRGRPDASIMALNSTIVTTNLKLETCLNEWERRFVFQGLSELVDSSLYSIFYKIESMNRGSCLQMLKNMSAMIQILKTVKEIHGDVEFPKSSRVFGIYQNGAKKIIEHFIAAPKKELLPDVKQMVRIYYQRLMKDAKRNGRDDLYRQYQKKIGSVLTQFDNTVGGARKNP | binds
Sec6 (protein, UniProt O74846 1-752) MTAAASDDAVYNKVADILRQCEDFHRLSTHIERFEREQASLNMHVKTELEKHVEAVELGKLALHDAQTKRVKLLQELHNMLTLCESAREMVDEFPLISRMSRIYKNCYATKQMISQLNNLVKETDVIEDMLREDLELDSDMPNLLRAHYKLSKLREFREEALYQASLEGQSDLPITLENSFSNLNTLSDNFDRLVLNFCRNIFQLVKSGHIKTIVQIFKIVEAEESSDEVLKSIRDAKSSLPDSQDGPFLSLQGMTRQLRNFRLRVLEEFQGAAAENFQRAWVSYLEDGSGELNLDFIFEDLKVAFYVLPDLTPPSYNIAKTFASIYQECLVGLVTKAVSLDTPAAVYLYLINFHREYRKFFEENAPFSVDEVEPGLEDGKDGILVREYTRLFTQKIREWSDKLFQSSVDTFMKRESEPELDSDGNYGLQGTIIFFQMITQQINIISHTNNSDVVGIVLSSIMYIMQSMQDQWKSVMRSELSQQLSGNPESVPPGLMEYLLAVANDNLKCAGFMDNTLLNTFELITSEREEDLREAFGKTVDGYILISDIGVSQIVAIISNDVKPALTSLFQPNWYQSSNMKLIVDTFRDYIVDCIEHMVPGLFDVFLLEASNALTISYLRSIFNKNACFDGDNAIQQIRSDIALAIRVFGEYMAAEHLRSTFEPIEKLLLGMLDADVETVSEYFHLLKEAYWDAPLSLVEAVLQNRTDLEKSIIKKMIDIVRHENDSLQIDTSQQPTVFSQVTSLSGSSIL | binds
Sec15 (protein, UniProt O75006 1-768) MDIDVLEFVDKIASIESAGDTLDRLPQLISLACEKGQETQVYERLNELASKSAIRVEQLSAENNQDFSKSVNQLSVVRSELRSLQSLMADLNTDIQASGRDLQNMKQQLNSLSTSERFLTKYHNLVRSCMQVLHQVQYSQELLSKKQYLPTLRICSEISEVHLKRLDGLGMYSTIQQYIVTTKEAICSAVMEDLHEWLFSIRQKLPLVGKSCSQQIDEARRRWAREYKEDLVNLSSKTSISLELYLLEMMDFSPLDNEIVKISFEPLYICLQVHSYLGLLSSFRSSFERDRRRQQEFLAPKSLTTLDMAVVSEWLNSIAGFMIVEYYILQCIPNFRSYEEVQNIWTIICEKLVETILSVAFTEQSTTTIIKLKNQIVLLMHTMERFGFSVESLRNLCVELIDAFGGALILKHSVFFEEAFEKDVYAPMIVETQEEYDHYIAPYWNFPSEPFPRTMSFSKMCPLCCTTLSKFVRHFFMFLNDSVILATEVNEKAPRFYRRFILRSLVDRLKSLYPKLALSQMSQLVKNFYAFEDPLLQIEKSLVLNKPIHQIGAEASSSNNVKSTELLEGLANARKSALHEIFVKINLKIDDFLGLAEYDWTTTQVRKDVSGYLQEMVTYLQTMYLESLAGLPKHDKSYVYLETLDHLCTAMVDLLSDPSIRKVTTAAAEGFKLDVEYLESFAAQVPDQSIVNADSFIELRQCANLLLGDNMEEYLDTDKFMRDFNRLQPAVAIKFLERHINNYSANPLSNDRPKRRAIEILIATLKKR | binds

These are yes or no findings as the source states them, for the method shown. Binding seen in cells or lysates may run through a third protein. A yes stands for co-enrichment or nearness to the bait. Other partners may have been found.
